Results deposited as PubChem BioAssay AID686938 (Drosophila RNAi Screening Center, 2013).
Purpose: 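Knock-downs reducing store-operated calcium influx in Drosophila cells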 (primary screen). System: Drosophila S2R+ cells. Reagent: long dsRNA against Drosophila genes, about 0.25 µg dsRNA per well, roughly 10,000 cells. Timing: 5 days of knock-down before the calcium assay. Treatment: thapsigargin (SERCA pump blocker) to empty calcium stores; entry signal taken 4 min after adding it. Detection: 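Per-well fluo-4 fluorescence in two replicates, unnormalised, measured in resting cells and 4 min after store depletion by the SERCA blocker thapsigargin; ratio of the two present in few wells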. Scale: calcium entry signal: higher = stronger calcium signal after store depletion; entry to resting ratio: higher = more calcium entry relative to resting level; resting calcium signal: higher = higher resting calcium signal. Units: calcium entry signal in fluorescence units; resting calcium signal in fluorescence units. Hit rule: 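Hit if the duplicate-averaged plate z-score for entry over resting signal is under −3; wells with weak total dye signal (Fmax z < −2) or more than 5 off-targets removed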. Meaning of the calls: active = strongly reduced calcium entry; inactive = no strong reduction.
The screen tested about 23,000 reagents; below is an unselected part of those that have a named target and a result. In the full data, 75 (0.33%) were called active. 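Raw plate signals without normalisation; calls rest on plate z-scores that were not deposited; ratio present for only 364 wells.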 Names joined by + are all predicted targets of the reagent. Reagent sequences are not shown. Not stated in the record: the dose of the treatment.

predicted target | amplicon | calcium entry signal, replicate 1 | calcium entry signal, replicate 2 | entry to resting ratio | resting calcium signal, replicate 1 | resting calcium signal, replicate 2 | Outcome
Roc2 (Regulator of cullins 2) | DRSC07313 | 3.38e7 | 3.70e7 | – | 1.78e7 | 1.84e7 | inactive
bam (bag of marbles) | DRSC16907 | 3.74e7 | 6.09e7 | – | 1.94e7 | 2.48e7 | inactive
CG13280 | DRSC02253 | 3.95e7 | 1.99e7 | – | 1.79e7 | 1.07e7 | inactive
CG42784 | DRSC02534 | 3.36e7 | – | – | 1.71e7 | – | inactive
CG42784 | DRSC02535 | 2.22e7 | 3.94e7 | – | 1.34e7 | 1.98e7 | inactive
CG42784 | DRSC22272 | 2.42e7 | 3.60e7 | – | 1.19e7 | 2.03e7 | inactive
CG42784 | DRSC22804 | 3.08e7 | 3.68e7 | – | 1.53e7 | 1.92e7 | inactive
CG42784 | DRSC23000 | 4.44e7 | 4.22e7 | – | 2.07e7 | 1.82e7 | inactive
CG3704 | DRSC18174 | 4.43e7 | 6.60e7 | 1.9 | 2.29e7 | 2.64e7 | inactive
CG3704 | DRSC18645 | 4.05e7 | 6.00e7 | 1.9 | 2.09e7 | 2.36e7 | inactive
CG13984 | DRSC02316 | 3.20e7 | 3.99e7 | – | 1.57e7 | 1.85e7 | inactive
Cnot4 (CCR4-NOT transcription complex subunit 4) | DRSC02830 | 4.36e7 | 5.46e7 | – | 2.16e7 | 2.27e7 | inactive
Cnot4 (CCR4-NOT transcription complex subunit 4) | DRSC02831 | 4.24e7 | 5.52e7 | – | 2.10e7 | 2.42e7 | inactive
CG7900 | DRSC16336 | 4.33e7 | 5.74e7 | – | 2.09e7 | 2.64e7 | inactive
CG7900 | DRSC21343 | 2.46e7 | 3.44e7 | – | 1.24e7 | 1.67e7 | inactive
VhaM9.7-b (Vacuolar H[+] ATPase M9.7 subunit b) | DRSC11841 | 2.37e7 | 4.26e7 | – | 1.25e7 | 1.97e7 | inactive
CG10324 | DRSC14230 | 1.67e7 | 2.50e7 | – | 1.07e7 | 5.41e7 | inactive
betaggt-I (beta subunit of type I geranylgeranyl transferase) | DRSC03494 | 4.34e7 | 3.72e7 | – | 2.04e7 | 1.63e7 | inactive
CG32262 | DRSC08165 | 3.93e7 | 3.18e7 | – | 2.66e7 | 1.33e7 | inactive
Grik | DRSC15846 | 5.01e7 | 4.31e7 | – | 2.40e7 | 1.91e7 | inactive
Grik | DRSC15847 | 3.76e7 | 4.34e7 | – | 6.52e7 | 1.95e7 | inactive
CG1598 | DRSC06598 | 5.82e7 | 4.45e7 | – | 2.56e7 | 1.93e7 | inactive
CG7695 | DRSC16289 | 4.10e7 | 4.67e7 | – | 4.52e7 | 2.06e7 | inactive
mnd (minidiscs) | DRSC11370 | 4.09e7 | 4.79e7 | – | 1.95e7 | 1.88e7 | inactive
Klp10A (Kinesin-like protein at 10A) | DRSC19601 | 2.98e7 | 3.89e7 | – | 1.48e7 | 1.70e7 | inactive
CG10405 | DRSC14238 | 2.92e7 | 6.51e7 | – | 1.63e7 | 6.16e7 | inactive
Pdf (Pigment-dispersing factor) | DRSC16786 | 5.46e7 | 3.22e7 | – | 2.52e7 | 1.58e7 | inactive
CG31689 | DRSC00734 | 4.27e7 | 5.53e7 | – | 1.98e7 | 2.23e7 | inactive
CG7382 | DRSC03052 | 3.49e7 | – | – | 1.95e7 | – | inactive
CG17977 | DRSC06700 | 3.68e7 | 4.25e7 | – | 1.73e7 | 1.85e7 | inactive
Lcp65Ag3 + Lcp65Ag2 + Lcp65Ag1 | DRSC11214 | 2.58e7 | 3.31e7 | – | 1.16e7 | 1.42e7 | inactive
Lcp65Ag3 + Lcp65Ag2 + Lcp65Ag1 | DRSC11215 | 2.57e7 | 3.41e7 | – | 1.19e7 | 1.44e7 | inactive
CG42323 | DRSC19629 | 4.67e7 | 3.56e7 | – | 2.40e7 | 1.72e7 | inactive
CG42323 | DRSC21397 | 4.04e7 | 3.62e7 | – | 2.24e7 | 1.67e7 | inactive
CG11699 | DRSC19419 | 3.69e7 | 4.09e7 | – | 1.89e7 | 2.05e7 | inactive
CG11779 | DRSC14384 | 1.65e7 | 1.73e7 | – | 8.54e6 | 8.71e6 | inactive
Set1 (SET domain containing 1) | DRSC20930 | 2.46e7 | 3.41e7 | – | 1.54e7 | 2.18e7 | inactive
Set1 (SET domain containing 1) | DRSC20931 | 3.39e7 | 4.00e7 | – | 2.39e7 | 2.52e7 | inactive
CecB (Cecropin B) | DRSC16605 | 2.76e7 | 2.96e7 | – | 1.42e7 | 1.25e7 | inactive
gkt + CR31953 | DRSC00709 | 4.37e7 | – | – | 2.44e7 | – | inactive
CG30373 | DRSC05081 | 2.82e7 | 5.44e7 | – | 1.53e7 | 2.29e7 | inactive
Cyp6g1 (Cytochrome P450 6g1) | DRSC07386 | 3.20e7 | 3.53e7 | – | 1.47e7 | 1.76e7 | inactive
CG15764 | DRSC18070 | 3.41e7 | 3.87e7 | – | 1.75e7 | 1.80e7 | inactive
Arpc3A (Actin-related protein 2/3 complex, subunit 3A) | DRSC15596 | 2.45e7 | 3.22e7 | – | 1.24e7 | 6.05e7 | inactive
Jhe (Juvenile hormone esterase) | DRSC07174 | 4.53e7 | 4.69e7 | – | 2.00e7 | 2.15e7 | inactive
CG11030 | DRSC02120 | 2.20e7 | 2.19e7 | – | 1.23e7 | 1.25e7 | inactive
dpr15 (defective proboscis extension response 15) | DRSC12891 | 4.16e7 | 3.58e7 | – | 2.10e7 | 1.76e7 | inactive
dpr15 (defective proboscis extension response 15) | DRSC14187 | 2.37e7 | 2.35e7 | – | 1.21e7 | 1.31e7 | inactive
dpr15 (defective proboscis extension response 15) | DRSC14188 | 1.93e7 | 2.28e7 | – | 1.04e7 | 1.22e7 | inactive
CG12637 | DRSC17845 | 4.62e7 | 4.22e7 | – | 2.15e7 | 1.75e7 | inactive
CG7556 | DRSC20052 | 4.01e7 | 4.61e7 | – | 2.16e7 | 2.29e7 | inactive
CG31937 | DRSC00514 | 5.11e7 | – | – | 2.64e7 | – | inactive
CG15706 | DRSC06577 | 3.94e7 | 4.14e7 | – | 1.62e7 | 1.86e7 | inactive
CG1113 | DRSC12163 | 3.34e7 | 1.91e7 | – | 1.49e7 | 1.03e7 | inactive
aqrs (aquarius) | DRSC14724 | 4.04e7 | 5.84e7 | – | 2.10e7 | 2.43e7 | inactive
Rtc1 | DRSC20285 | 2.87e7 | 2.53e7 | – | 1.75e7 | 1.41e7 | inactive
CG31224 | DRSC15272 | 4.91e7 | 2.52e7 | – | 2.21e7 | 1.31e7 | inactive
CG31224 | DRSC16290 | 4.67e7 | 4.19e7 | – | 2.06e7 | 1.66e7 | inactive
CG4554 | DRSC04473 | 2.09e7 | 3.41e7 | – | 1.26e7 | 1.72e7 | inactive
mRpS18B (mitochondrial ribosomal protein S18B) | DRSC02107 | 4.37e7 | – | – | 2.25e7 | – | inactive
Fbxo42 (F-box protein 42) | DRSC04529 | 3.71e7 | – | – | 1.74e7 | – | inactive
CG14854 | DRSC14978 | 2.69e7 | 4.11e7 | – | 1.44e7 | 5.43e7 | inactive
Reepl1 (Receptor accessory protein like 1) | DRSC19418 | 3.51e7 | 4.47e7 | – | 1.75e7 | 1.98e7 | inactive
CG13484 | DRSC10026 | 3.43e7 | 3.49e7 | – | 1.57e7 | 1.51e7 | inactive
CG11563 | DRSC14327 | 2.87e7 | 3.97e7 | 1.8 | 1.56e7 | 1.73e7 | inactive
YL-1 | DRSC02765 | 4.12e7 | 4.76e7 | – | 1.94e7 | 2.23e7 | inactive
CG18853 | DRSC06795 | 2.20e7 | 2.47e7 | – | 1.04e7 | 1.15e7 | inactive
Fgop2 (Fibroblast growth factor receptor 1 oncogene partner 2) | DRSC02016 | 2.75e7 | – | – | 1.91e7 | – | inactive
CR43096 + CG43060 | DRSC12654 | 3.13e7 | 5.66e7 | – | 1.58e7 | 2.46e7 | inactive
Pldn (Pallidin) | DRSC10137 | 1.90e7 | 2.44e7 | – | 1.11e7 | 1.15e7 | inactive
CG42471 | DRSC01210 | 4.79e7 | 4.73e7 | – | 2.33e7 | 2.21e7 | inactive
Tsp29Fa (Tetraspanin 29Fa) | DRSC03232 | 4.33e7 | 5.21e7 | – | 1.76e7 | 2.10e7 | inactive
Edem1 (ER degradation enhancer, mannosidase alpha-like 1) | DRSC18573 | 3.78e7 | 4.25e7 | – | 1.66e7 | 2.11e7 | inactive
Uggt (UDP-glucose-glycoprotein glucosyltransferase) | DRSC11315 | 4.25e7 | 4.94e7 | – | 1.95e7 | 3.51e7 | inactive
Sec13 (Secretory 13) | DRSC14144 | 4.49e7 | 3.60e7 | – | 2.24e7 | 1.65e7 | inactive

5 of these entries, set out differently:
| predicted target | amplicon | calcium entry signal, replicate 1 | calcium entry signal, replicate 2 | entry to resting ratio | resting calcium signal, replicate 1 | resting calcium signal, replicate 2 | Outcome |
| --- | --- | --- | --- | --- | --- | --- | --- |
| Grik | DRSC15847 | 3.76e7 | 4.34e7 | – | 6.52e7 | 1.95e7 | inactive |
| CG1598 | DRSC06598 | 5.82e7 | 4.45e7 | – | 2.56e7 | 1.93e7 | inactive |
| CG7695 | DRSC16289 | 4.10e7 | 4.67e7 | – | 4.52e7 | 2.06e7 | inactive |
| mnd (minidiscs) | DRSC11370 | 4.09e7 | 4.79e7 | – | 1.95e7 | 1.88e7 | inactive |
| Klp10A (Kinesin-like protein at 10A) | DRSC19601 | 2.98e7 | 3.89e7 | – | 1.48e7 | 1.70e7 | inactive |
